{"source": "paper PMC7819943", "about": "“Rice protein-binding microarrays: a tool to detect cis-acting elements near promoter regions in rice”", "note": "The other results are listed elsewhere or left out."}
{"biological_target": "T1, OsSMF1 (Oryza sativa, UniProt Q6ZLB0 1-436)", "T1 sequence": "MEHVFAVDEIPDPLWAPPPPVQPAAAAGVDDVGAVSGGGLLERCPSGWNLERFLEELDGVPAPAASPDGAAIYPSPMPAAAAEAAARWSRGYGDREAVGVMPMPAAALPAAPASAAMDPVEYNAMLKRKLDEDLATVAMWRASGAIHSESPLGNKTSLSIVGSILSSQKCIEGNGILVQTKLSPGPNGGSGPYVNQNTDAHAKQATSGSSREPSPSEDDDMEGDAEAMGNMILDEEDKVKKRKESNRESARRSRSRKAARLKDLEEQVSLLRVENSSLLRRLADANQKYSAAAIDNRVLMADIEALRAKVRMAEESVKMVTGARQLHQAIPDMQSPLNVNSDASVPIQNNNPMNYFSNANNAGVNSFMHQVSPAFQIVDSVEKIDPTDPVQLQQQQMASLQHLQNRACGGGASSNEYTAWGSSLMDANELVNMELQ", "assay": "protein-binding microarray (RPBM); PBS, 2% BSA, 51.3 ng/ul salmon testes DNA, 50 uM zinc acetate, 200 nM TF, 25 C, 1 h; high values mean tight binding", "settings": "protein: recombinant; tags: N-terminal polyhistidine and DsRed monomer fusion (pET32a); chain copies: 2; label: CyDye5-dUTP incorporated in the synthesized complementary strand; 3' TTTTT single-stranded linker to array surface; dsDNA, one strand shown", "summary_of_the_method": "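Ni–NTA purification followed expression in E. coli BL21-CodonPlus of transcription factors fused N-terminally to a polyhistidine tag and DsRed. At 200 nM in PBS with 2% BSA, salmon testes DNA and 50 µM zinc acetate, the protein was incubated for 1 h at 25 °C with a custom Agilent array that had been primer-extended with Cy5-dUTP and blocked with 2% BSA. After washing, the array was read on an Axon 4000B scanner. The binding signal is per-feature fluorescence intensity in arbitrary units.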"}
{"sequence": "GGCAGACAGCCCAACAATCAGACTTGGCGTGTACGGTTCCCGGAGTCACCTAGTGCAG", "binding signal": "3610 fluorescence intensity (a.u.)"}
{"sequence": "GATGTGACTGAAAAGTTGTGTGTGTATGACAGGTACATGTCGGAGTCACCTAGTGCAG", "binding signal": "4090 fluorescence intensity (a.u.)"}
{"sequence": "GAATGTAGTAATACAATATGGAACTACACGTGTACTTTGCCGGAGTCACCTAGTGCAG", "binding signal": "8310 fluorescence intensity (a.u.)"}
{"sequence": "TTGGCCTCCACGACTACCACACCATCATCACCAAGCCCATCGGAGTCACCTAGTGCAG", "binding signal": "4190 fluorescence intensity (a.u.)"}
{"sequence": "TTCTTTTAATTCTAATATCACATAAGCGCCACGTGAGACGCGGAGTCACCTAGTGCAG", "binding signal": "3320 fluorescence intensity (a.u.)"}
{"sequence": "AGCATCCTGACCACCATTTGATAAAGACACACGTGGAGGCCGGAGTCACCTAGTGCAG", "binding signal": "8150 fluorescence intensity (a.u.)"}
{"sequence": "GGACGCTCCCGATGTGTTCCACGTCATCGATCCGCGGCACCGGAGTCACCTAGTGCAG", "binding signal": "24700 fluorescence intensity (a.u.)"}
{"sequence": "GTACAGTACGTACGATGGTGCCTCATCGGCTGACCCAATCCGGAGTCACCTAGTGCAG", "binding signal": "3790 fluorescence intensity (a.u.)"}
{"sequence": "CAGATTAAATCATTCATGACAAGACACTTTGACCCATCATCGGAGTCACCTAGTGCAG", "binding signal": "4090 fluorescence intensity (a.u.)"}
{"sequence": "TCTATTCCTCATAGAATCAGTTCTGCCTATTAGTTTTGTTCGGAGTCACCTAGTGCAG", "binding signal": "24600 fluorescence intensity (a.u.)"}
{"sequence": "CAAATTTTCTTGGACTTGGAGATCAAATATTTATGACTGTCGGAGTCACCTAGTGCAG", "binding signal": "14700 fluorescence intensity (a.u.)"}
{"sequence": "AGCAGGTTGGAGTTCGAGGTTTAGGGCTGACATCATCGTCCGGAGTCACCTAGTGCAG", "binding signal": "10900 fluorescence intensity (a.u.)"}
{"sequence": "CAAAGAGGAAAGCCAAACGACCCAACCGCATATCCATTTCCGGAGTCACCTAGTGCAG", "binding signal": "28600 fluorescence intensity (a.u.)"}
{"sequence": "AGTGTACGTGAAAGCGTGGCATGGCCGATACCGACCATCTCGGAGTCACCTAGTGCAG", "binding signal": "4410 fluorescence intensity (a.u.)"}
{"sequence": "CAGCTGGCCACGTCATCAAACTCCTCTCTCTTTTCCCCTCCGGAGTCACCTAGTGCAG", "binding signal": "38900 fluorescence intensity (a.u.)"}
{"sequence": "TCCACATTTAATATTTCATACATATGTCCAACATTCGATGCGGAGTCACCTAGTGCAG", "binding signal": "3270 fluorescence intensity (a.u.)"}
{"sequence": "TGACAGAGTAAATGCGATATGAACCGCTCGATGAAATTTGCGGAGTCACCTAGTGCAG", "binding signal": "26100 fluorescence intensity (a.u.)"}
{"sequence": "GAGATAGTAATAACGTGTGATTAATTAAGTTTTAATTATTCGGAGTCACCTAGTGCAG", "binding signal": "3310 fluorescence intensity (a.u.)"}
{"sequence": "ATAGTTAGGTGACAATTGACAAGTGTCAAGTTGTGTATGACGGAGTCACCTAGTGCAG", "binding signal": "3360 fluorescence intensity (a.u.)"}
{"sequence": "AAGAAGCAACACACATTTCAAATTTAAAATCCGAGTCAAGCGGAGTCACCTAGTGCAG", "binding signal": "3810 fluorescence intensity (a.u.)"}
{"sequence": "CCCCATTAAACGGAAAATTAGGTGCCTGATGAATTTACATCGGAGTCACCTAGTGCAG", "binding signal": "19600 fluorescence intensity (a.u.)"}
{"sequence": "CGCACCGACGCCGCAGCCGTTGCTCCCCGTGACCAACCCCCGGAGTCACCTAGTGCAG", "binding signal": "3450 fluorescence intensity (a.u.)"}
{"sequence": "TGTGCTATACCGCGCGCGGCGCGATCCACGTAAGAAAGTCCGGAGTCACCTAGTGCAG", "binding signal": "8360 fluorescence intensity (a.u.)"}
{"sequence": "GCGCGCGCGCGCCCGCGGCCATCGGCTGTCGCACGCGGCGCGGAGTCACCTAGTGCAG", "binding signal": "37900 fluorescence intensity (a.u.)"}
{"sequence": "GCGGCGAGGGGCGACCAGGAGCTCCCGCCCTACGTCATCACGGAGTCACCTAGTGCAG", "binding signal": "6340 fluorescence intensity (a.u.)"}
{"sequence": "ATTTCCGACCGGTCATATTCATTTGTCAACCTGATTGTACCGGAGTCACCTAGTGCAG", "binding signal": "3550 fluorescence intensity (a.u.)"}
{"sequence": "TTTGTTTTCTTTTCCTTGACTTGCACGCTCAAAGCACAATCGGAGTCACCTAGTGCAG", "binding signal": "3460 fluorescence intensity (a.u.)"}
{"sequence": "TAGATATTTGATGTTTGTTGTTCCTTAAACATAAGCTAAGCGGAGTCACCTAGTGCAG", "binding signal": "3730 fluorescence intensity (a.u.)"}
{"sequence": "ATTTAATGTTGTCCTAGCTAGATCCATCCAAGGCTCCAAACGGAGTCACCTAGTGCAG", "binding signal": "3590 fluorescence intensity (a.u.)"}
{"sequence": "GTAATTAATTTTAACATCATATCATCTCATAGAGAGCACGCGGAGTCACCTAGTGCAG", "binding signal": "4570 fluorescence intensity (a.u.)"}
{"sequence": "CTTTATCTGCATGAATTAATGCATGATTACATCATTGCACCGGAGTCACCTAGTGCAG", "binding signal": "35000 fluorescence intensity (a.u.)"}
{"sequence": "AATCTGGGAAGCCGTGTAGCGCGCGTCATCACGTCGTCCCCGGAGTCACCTAGTGCAG", "binding signal": "7760 fluorescence intensity (a.u.)"}
{"sequence": "TATTTTCCTCCTGGACCCTTTCGCAAGTAACACGCGTCGGCGGAGTCACCTAGTGCAG", "binding signal": "4670 fluorescence intensity (a.u.)"}
{"sequence": "TGCATGTGGAGGGAGAAGAGGGCGGCGGCACACGTGGAGGCGGAGTCACCTAGTGCAG", "binding signal": "5880 fluorescence intensity (a.u.)"}
{"sequence": "GACGACCCCAGCGTCAGCCGCGTCATGCGGGAGGCCGGCTCGGAGTCACCTAGTGCAG", "binding signal": "6400 fluorescence intensity (a.u.)"}
{"sequence": "CGCGCGCGTACTGGCTACACACACATACGCGCGGCGACAGCGGAGTCACCTAGTGCAG", "binding signal": "3820 fluorescence intensity (a.u.)"}
{"sequence": "ATCACTCTACTTTGTCTGTGTCATATTATAAGCTGCTTGACGGAGTCACCTAGTGCAG", "binding signal": "5640 fluorescence intensity (a.u.)"}
{"sequence": "CGCGCGGAATAGAGAATACTCCTACCGCAACTTGGCCCGGCGGAGTCACCTAGTGCAG", "binding signal": "3490 fluorescence intensity (a.u.)"}
{"sequence": "TGTGTTGGCGTGGGCCCCACCTGCCACGTCAGGTCCAGCTCGGAGTCACCTAGTGCAG", "binding signal": "26700 fluorescence intensity (a.u.)"}
{"sequence": "TTGAACACGACCTCTTCCTTCTCCAAACGAACGACCATGCCGGAGTCACCTAGTGCAG", "binding signal": "18300 fluorescence intensity (a.u.)"}
{"sequence": "TCCCTTGGCAGTATAGGTGGGTGGTTTTGCTTACGTGGCACGGAGTCACCTAGTGCAG", "binding signal": "40000 fluorescence intensity (a.u.)"}
{"sequence": "GCTAGGTCTGGTCGCCCCGTGTGTGTATCCGTTGCCCCTGCGGAGTCACCTAGTGCAG", "binding signal": "3860 fluorescence intensity (a.u.)"}
{"sequence": "TAGCACTTATGACTAATCACGAACTAATTAGGCTTAAAAGCGGAGTCACCTAGTGCAG", "binding signal": "3980 fluorescence intensity (a.u.)"}
{"sequence": "TCACGGCCCCGCCGACCTCACGTCACCTTTTGTTGCGAGTCGGAGTCACCTAGTGCAG", "binding signal": "4160 fluorescence intensity (a.u.)"}
{"sequence": "CGCCATGTGTCAACTGGCATGGCCGTGCGCTGGCACACACCGGAGTCACCTAGTGCAG", "binding signal": "5160 fluorescence intensity (a.u.)"}
{"sequence": "CTTCAAATGTGTGTCAGTATATCCAATATGACACGCCAAACGGAGTCACCTAGTGCAG", "binding signal": "3870 fluorescence intensity (a.u.)"}
{"sequence": "TTGTATACTTTCAAAGGAACTAGTACCATTCGTATTGTTGCGGAGTCACCTAGTGCAG", "binding signal": "3640 fluorescence intensity (a.u.)"}
{"sequence": "TCACTTGACTCGATCGATCGCTCCGATCGACTACACCCCGCGGAGTCACCTAGTGCAG", "binding signal": "3540 fluorescence intensity (a.u.)"}
{"sequence": "CAGATCCATTCCCAGATCCTGACAAAGCACTAGAACTACACGGAGTCACCTAGTGCAG", "binding signal": "3620 fluorescence intensity (a.u.)"}
{"sequence": "AGTACTCCATTGGAACATGACGCATAATACTACTCTACTTCGGAGTCACCTAGTGCAG", "binding signal": "3840 fluorescence intensity (a.u.)"}
{"sequence": "GCGCGAGCCATTATCTTACGTCACGGCCCAAACGCCGAGGCGGAGTCACCTAGTGCAG", "binding signal": "7220 fluorescence intensity (a.u.)"}
{"sequence": "CCCTCGTCTCCCGCGCCTGCCACGCCGCCGAGTCGCGCCACGGAGTCACCTAGTGCAG", "binding signal": "5000 fluorescence intensity (a.u.)"}
{"sequence": "ACACACCACATAAGTGCCACGAAACTGCCTCCGAAACCACCGGAGTCACCTAGTGCAG", "binding signal": "3470 fluorescence intensity (a.u.)"}
{"sequence": "GGTCCCACCTGTCATATGCATATTACGTTTTAGAGTCCGTCGGAGTCACCTAGTGCAG", "binding signal": "3270 fluorescence intensity (a.u.)"}
